# Data reported in PubChem BioAssay AID504444 (National Center for Advancing Translational Sciences (NCATS), 2011).
# Where “and” joins values, the source holds several entries; their conditions need not be identical. Equal values may be shown once. In all, about 360,000 compounds went through this assay and about 7,500 (2.1%) were called active. Inconclusive means that the source gave no clear call. Such entries were picked first, then a sample of the others. Calls follow the shape of the dose curve; as a rule, active = well fitted inhibition curve with a large enough effect; inconclusive = small, poorly fitted or top-dose-only effect, or effect the other way; inactive = flat fitted curve, though single readings scatter. Where the call is inconclusive, the potency comes from a doubtful curve fit. The source holds several records for some structures; these can differ, active in one and inactive in another. Square brackets hold non-standard residues; d marks the D form. Peptide text beside a SMILES is read from it. ξ: configuration not given here. ξLac(3-iPr) = CC(C)CC(O)C(=O)O; NMeV = CN[CH](C(=O)O)C(C)C; NMeA = CN[CH](C)C(=O)O; βAla = NCCC(=O)O
# Assay: Nrf2 qHTS screen for inhibitors; also: nearly all actives have a fitted effect of over 60% in size
# Conditions: A549 ARE-Fluc reporter, luciferase luminescence, 18-24 h; series mostly up to 46 µM
# Source text: NIH Molecular Libraries Probe Production Network [MLPCN]
# NIH Chemical Genomics Center [NCGC]
# Assay Provider: Shyam Biswal, Johns Hopkins University
# Nrf2 is a transcription factor that maintains cellular redox homoestasis and protects cells from xenobiotics. Nrf2 binds to the antioxidant response element (ARE) to induce gene expression of a broad spectrum of genes that encode for antioxidants. […] Finding a small molecule that act as an inhibitor of Nrf2 function would represent a novel therapeutic target that could lead to improvement in survival of patients undergoing chemo- and/or radio- therapy.
# This is the Nrf2 activity measured in the luminescent read.
# 1. Shibata, T., et al., Genetic Alteration of Keap1 Confers Constitutive Nrf2 Activation and Resistance to Chemotherapy in Gallbladder Cancer. Gastroenterology, 2008.
# 2. Sjoblom, T., et al., The consensus coding sequences of human breast and colorectal cancers. Science, 2006. 314(5797): p. 268-74.
# NCGC Assay Protocol Summary:
# A concentration-response assay was performed with A549 ARE_Fluc cells which are suspended in 5% FBS OPTI-MEM. Five uL were dispensed into 1536-well white TC-treated plate using the Kalypsys dispenser to achieve a density of 5000 cells/well in all columns except column 1. The plate is incubated at 37deg C at 5% CO2 for 2 hours before 23 nL of compounds are added with the Kalypsys pin tool equipped with a 1,536-pin array containing 10-nL slotted pins (FP1S10, 0.457-mm diameter, 50.8 mm long; V&P Scientific). The control compounds Budesonide and Staurosporine are both added at a concentration of 2mM and Budesonide is also added as a 1:10 titration, starting at 200uM, to achieve dose-response. After an 18-24 hour incubation at 37deg C at 5% CO2, 5ul of medium is added to column 1. Afterwards 1ul of 5x of CellTiter-Fluor (Promega) is added to every well. The plate is then incubated at 37deg C at 5% CO2 for 30 minutes before they are read on the ViewLux (Perkin Elmer) for a fluorescent read Ex=405(10)/Em=525(10) for a 3 second exposure, 2x binning, and high gain. Then 3 uL of 3x BugLite is dispensed into all wells and the plate is incubated at ambient room temperature for 15 minutes. Afterwards another ViewLux read is performed using the clear filter to get a luminescent read with the settings of 40 second exposure, 2x binning, and high gain. Cytotoxicity is assessed through the first fluorescent read and then biochemical activity against Nrf2 is measured in the luminescent read.
# Potency is read from the fitted curve at half-maximal effect.
row,Structure (SMILES),Potency
1,O=C(c1ccccc1)N1CCN(c2ccccc2)CC1,"inconclusive: 7.31 µM [activator, partial curve, poor fit]"
2,CCCNC(=O)NC(=O)COc1ccc(-c2ccc(C#N)cc2)cc1,"inconclusive: 2.91 µM [falling, partial curve]"
3,Cc1cc(C)nc(N2Cc3ccccc3C2=N)n1,"inconclusive: 29.1 µM [falling, single point]"
4,CC(=O)c1cn(Cc2ccc(F)cc2)c2ccccc12,"inconclusive: 14.6 µM [falling, partial curve]"
5,COc1ccc2c(c1)/C(=C/c1cnc[nH]1)C(=O)N2,active: 18.4 µM
6,N#CC(C(=O)C12CC3CC(CC(C3)C1)C2)c1nc2ccccc2[nH]1 (centres undefined),"inconclusive: 29.1 µM [falling, single point]"
7,Cc1cc(N2CCOCC2)nc2ccc(NC(=O)CCC(=O)N3CCC4(CC3)OCCO4)cc12,"inconclusive: 16.4 µM [activator, partial curve]"
8,Cc1nn(CC(C)C)c(Cl)c1C(=O)O,inactive
9,O=C(Nc1ccc(OC(F)(F)F)cc1)C1CCN(S(=O)(=O)c2cccs2)CC1,"inconclusive: 29.1 µM [falling, single point]"
10,Cc1cc(C(=O)Cn2nnc(-c3ccc(Cl)cc3)n2)c(C)n1-c1ccccc1,"inconclusive: 29.1 µM [falling, single point]"
11,O=C(C1CCN(S(=O)(=O)c2ccc(Br)s2)CC1)N1CCN(c2ccccc2)CC1,"inconclusive: 16.4 µM [falling, single point] and inconclusive: 20.6 µM [falling, single point]"
12,COc1ccc(Cl)cc1C(=O)C1CCCN(Cc2cnc(C)s2)C1 (centres undefined),"inconclusive: 29.1 µM [falling, single point]"
13,COc1ccc(C[C@H]2NC[C@H](O)[C@H]2OC(C)=O)cc1,active: 0.116 µM
14,C=CCn1c(O)c(C=NCCN(C)C)c(=O)[nH]c1=O,"inconclusive: 29.1 µM [activator, single point]"
15,COC(=O)c1sc2nc(SCc3cccc(F)c3)n(N)c(=O)c2c1C,"inconclusive: 6.51 µM [falling, single point]"
16,O=C1CN=C(c2ccc(Cl)cc2)c2oc3ccccc3c2N1,"inconclusive: 10.3 µM [falling, partial curve, poor fit]"
17,CSc1cccc(NC(=O)C2CCN(C(=O)c3cnn(-c4ccccc4)c3-n3cccc3)CC2)c1,active: 23.1 µM
18,CC(=O)OC1CC[C@]2(C#N)[C@H]3CC[C@]4(C)[C@H](C5C=CC(=O)O5)CCC4(O)C3CCC2(O)C1 (some centres undefined),active: 5.17 µM
19,CC(C)n1c(=O)c(C=Nc2ccc(S(N)(=O)=O)cc2)c(O)n(Cc2ccco2)c1=O,inactive
20,Oc1c(Cl)c(Cl)c(Cl)c(Cl)c1Cl,active: 23.1 µM
21,Nc1c(C(=O)NCc2ccco2)c2nc3ccccc3nc2n1Cc1ccc(F)cc1,inactive
22,CCN(CC)c1ccc(N=Cc2c(O)n(Cc3ccccc3)c(=O)[nH]c2=O)cc1,inactive

# Three entries from above, ordered by count of non-hydrogen atoms, rising:
row,Structure (SMILES),Potency
20,Oc1c(Cl)c(Cl)c(Cl)c(Cl)c1Cl,active: 23.1 µM
10,Cc1cc(C(=O)Cn2nnc(-c3ccc(Cl)cc3)n2)c(C)n1-c1ccccc1,"inconclusive: 29.1 µM [falling, single point]"
21,Nc1c(C(=O)NCc2ccco2)c2nc3ccccc3nc2n1Cc1ccc(F)cc1,inactive

# (next part)

row,Structure (SMILES),Potency
1,CNC(=O)Oc1ccc(-c2cn3cc(C)ccc3n2)cc1,active: 1.16 µM
2,c1ccc(Cc2nn3c(Cn4cnc5ccccc54)nnc3s2)cc1,active: 23.1 µM
3,COc1cccc(-c2sc3ccccc3c2-c2ccc(OCCN3CCOCC3)cc2)c1,inactive
4,CC(C)c1oc(=O)cc2c1[C@@H](O)[C@H]1OC(=O)[C@@]3(C)C[C@@H](O)[C@@H](O)[C@@]2(C)C13 (some centres undefined),active: 18.4 µM
5,O=C1NC(=O)N(CCc2ccc(F)cc2)C(=O)/C1=C/c1cccs1,inactive
6,COCCCNC(=O)c1c(NC(=O)c2ccco2)n(Cc2ccccc2)c2nc3ccccc3nc12,inactive
7,COC(=O)c1ccc(CSc2nc3c(cnn3-c3ccc(C)cc3)c(=O)[nH]2)o1,active: 23.1 µM
8,COc1ccc2c(c1)[nH]c1c(C)nccc12,active: 18.4 µM and active: 23.1 µM
9,CCCC[C@@H](C)C[C@@H](C)C(=O)N(C)[C@@H](CC(C)C)C(=O)N[C@H](C(=O)N(C)[C@H](C(=O)N1C[C@@H](O)C[C@H]1C(=O)N1C(=O)C=C[C@@H]1C)C(C)C)C(C)OC(C)=O (some centres undefined),"inconclusive: 25.9 µM [falling, single point]"
10,O=C(CN1CCN(S(=O)(=O)c2cc(Br)ccc2Br)CC1)NCc1ccccc1Cl,"inconclusive: 20.6 µM [falling, partial curve, poor fit]"
11,Cc1ccccc1-c1nc(CN2C(=O)CN=C(c3ccccc3)c3ccccc32)c(C)o1,"inconclusive: 25.9 µM [falling, single point]"
12,CCc1ccc(-n2nc(C)c3c2NC(=O)CSC3c2ccc(C(=O)OC)cc2)cc1 (centres undefined),"inconclusive: 29.1 µM [falling, single point]"
13,Cc1cc(/C=C2\C(=O)NC(=O)N(c3ccc(Cl)cc3)C2=O)c(C)n1C,inactive
14,CCOCC1(CCc2ccccc2)C(=O)NC(=S)NC1=O,"inconclusive: 32.6 µM [falling, single point]"
15,COC(=O)C1=C(c2ccc(-c3ccccc3)c(F)c2)C[C@@H]2CC[C@H]1N2C(=O)NCCNC(C)=O,inactive
16,O=C(c1ccc(C(F)(F)F)cc1)C1CCCN(Cc2ccncc2)C1 (centres undefined),"inconclusive: 16.4 µM [falling, partial curve]"
17,CCCc1cc(N2CCN(c3cccc(C)c3C)CC2)n2cnnc2n1,"inconclusive: 20.6 µM [falling, partial curve]"
18,C[C@@H]1O[C@@H](Oc2c(-c3ccc(O)c(O)c3)oc3cc(O)cc(O)c3c2=O)[C@H](O)[C@H](O)[C@H]1O,"inconclusive: 0.103 µM [activator, full curve, poor fit]"
19,CCCC1=Nc2cc(C(=O)NCCc3ccc(OCC)cc3)ccc2Sc2ccccc21,"inconclusive: 20.6 µM [falling, single point]"
20,C=CCc1ccc(OC(=O)NC2CCCCC2)c(OC)c1,"inconclusive: 3.66 µM [activator, full curve]"
21,O=c1[nH]cc(F)c(=O)[nH]1,"inconclusive: 11.6 µM [falling, partial curve]"
22,CNC(=O)COC(=O)c1ccc(-c2nc3ccccc3s2)s1,"inconclusive: 9.2 µM [activator, partial curve]"

# Quoted at random: four compounds from above.
row,Structure (SMILES),Potency
2,CCCNC(=O)NC(=O)COc1ccc(-c2ccc(C#N)cc2)cc1,"inconclusive: 2.91 µM [falling, partial curve]"
15,COC(=O)c1sc2nc(SCc3cccc(F)c3)n(N)c(=O)c2c1C,"inconclusive: 6.51 µM [falling, single point]"
13,COc1ccc(C[C@H]2NC[C@H](O)[C@H]2OC(C)=O)cc1,active: 0.116 µM
22,CCN(CC)c1ccc(N=Cc2c(O)n(Cc3ccccc3)c(=O)[nH]c2=O)cc1,inactive

# Following part:

row,Structure (SMILES),Potency
1,CCC(COC(=O)c1cc(OC)c(OC)c(OC)c1)(c1ccccc1)N(C)C (centres undefined),inactive and active: 20.6 µM
2,CCN1CCN(/C=N/c2nc(C)cs2)CC1,"inconclusive: 0.731 µM [activator, full curve, poor fit]"
3,CCN(CC)C(=O)c1ccc(NC(=O)COc2ccc(-c3nn(C)c(=O)c4ccccc34)cc2)cc1,"inconclusive: 20.6 µM [falling, single point] and inconclusive: 23.1 µM [falling, single point]"
4,NC(=O)OCCSc1nnc(-c2cccc(C(N)=S)c2)o1,"inconclusive: 16.4 µM [falling, single point]"
5,CCC(C)C1NC(=O)C2CCCN2C(=O)C(CC(C)C)OC(=O)CCNC(=O)C(C)N(C)C(=O)C(C(C)C)N(C)C1=O (centres undefined) (cyclo([ξLac(3-iPr)]PI[NMeV][NMeA][βAla]); configuration not given here),active: 5.17 µM
6,O=c1[nH]c(O)c(N=Nc2ccc(S(=O)(=O)N3CCOCC3)cc2)c(=O)[nH]1,"inconclusive: 0.82 µM [falling, full curve, poor fit]"
7,Cc1ccc(-c2nc3c(=O)n(C)c(=O)nc-3n(C)n2)cc1,active: 3.26 µM
8,COc1ccccc1-n1c(O)c(/C=C2\C=Nc3ccccc32)c(=O)[nH]c1=O,inactive
9,COc1ccc(C(=O)Nc2cccc(S(=O)(=O)NCc3ccco3)c2)cc1,"inconclusive: 23.1 µM [falling, single point]"
10,O=C(C1CC(=O)N(C2CCCCC2)C1)N1CCC2(CC1)OCCO2 (centres undefined),"inconclusive: 25.9 µM [activator, single point]"
11,COC(=O)C1=C(c2ccc(F)cc2OCc2ccccc2)C[C@@H]2CC[C@H]1N2C(=O)NCc1ccc(F)cc1,"inconclusive: 29.1 µM [falling, single point]"
12,COC(=O)C1=C(c2cccc(OCc3ccccc3)c2)C[C@@H]2CC[C@H]1N2C(=O)NCc1ccccc1OC,active: 20.6 µM
13,COC(=O)C(Cc1ccc(N(CCCl)CCCl)cc1)N=Cc1ccccc1O (centres undefined),"inconclusive: 32.6 µM [falling, single point]"
15,CCC1CN2CCc3cc(OC)c(OC)cc3C2CC1CC1NCCc2c1[nH]c1ccc(O)cc21 (centres undefined),active: 0.517 µM
16,Cn1c(NN=O)nc2ccccc21,"inconclusive: 23.1 µM [falling, partial curve, poor fit]"
17,N#Cc1c(/N=C/c2ccc(O)cc2O)sc2c1C1CCN2CC1,"inconclusive: 29.1 µM [activator, single point]"
18,CSc1nc2ccc(C)cc2c(=O)n1-c1cccnc1,"inconclusive: 29.1 µM [falling, partial curve, poor fit]"
19,O=C1NC(=O)C(=Cc2ccccc2[N+](=O)[O-])C(=O)N1,inactive
20,COc1cc([C@@H]2c3cc4c(cc3[C@H](O)[C@H]3COC(=O)[C@H]23)OCO4)cc(OC)c1OC,"inconclusive: 16.4 µM [activator, partial curve, poor fit] and inconclusive: 116 nM [activator, full curve]"
